Hit rate of the full screen: of about 52,000 sequences, about 210 (0.4%) were called active.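 The calls were made as follows: active = gene whose silencing raises cell survival under the drug, median off-target-corrected z-score across its silencing RNAs 2 or more; inactive = the rest.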 This is one part of the list.

A short description of this assay: Resistance to Poly (ADP-Ribose) Polymerase inhibitor: Gene Identification via Genome-wide siRNA Screen. The settings on record: mouse BRCA2 R2336H ES cells, olaparib, CellTiter-Glo viability; hits give high values. A digest of the protocol: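 Genome-wide siRNA screen (3 siRNAs/gene, 20 nM) in mouse ES cells carrying hypomorphic BRCA2 R2336H; olaparib 500 nM added 48 h post-transfection, CellTiter-Glo viability 72 h later. Normalized to plate-median negative control; MAD z-scores, gene median, seed-adjusted.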
For orientation: In ATP-based viability assays light output follows the ATP content of the culture.
On to GGUUGUGACAAUGUGGUACTT against Coro1b, for which the z-score is inactive: 0.097.

With GGGUCCUACAAAAAAAAAATT against D4Wsu114e, the z-score is inactive: 0.806.

Consider GCAAAUGGAUAACUUGUACTT against Epas1, for which the z-score is inactive: 0.585.

CCUCUGCUUUGUUACUUCCTT against Olfr1431: the z-score is inactive: -0.343.

For the sequence “GGUUCCUAAGGAUGAACUUTT against 9030611N15Rik”, the z-score was inactive: -0.94.

“GCCGUUAAGUACUUAUAAATT against D8Ertd319e”: the z-score is inactive: 1.03.

GGAGAAGUUGAUAGCUAAATT against Pax6: the z-score was inactive: 1.66.

For the sequence GGUGGUUACAACCGAAGCATT against Fus, the z-score was active: 2.95.

With GGGCAAACCUUCUAAACUATT against Ttpa, the z-score is inactive: -0.446.

Regarding GGAUAAGGCUUUAUGAGAGTT against Cryga, the z-score is inactive: -0.461.

For GGAGCUUGAUUCGAAGCCUTT against Biklk, the z-score was inactive: -0.258.

Consider “GGAUCAGUUGGCAAAGCUCTT against D3Ertd789e”, for which the z-score is inactive: 0.529.

Consider GGAAGCUCACUAGUAACUUTT against Itgb5, for which the z-score was inactive: -0.555.

For the sequence GGAUCCAAGUGAACGACCUTT against Ppp1r9b, the z-score was inactive: 1.48.

On to “GGAGGACUUCUCCUCCUUCTT against 4930538D17Rik”, for which the z-score was inactive: 0.601.

Take GGAGAUUAUAGGGAAGCUCTT against Il3: the z-score is inactive: -0.223.

For GGUCGAGGACAAAAAAAAATT against Dner, the z-score is inactive: 0.332.

Regarding “CCAAAACUUUCCACUCUAATT against 1700013G20Rik”, the z-score was inactive: -0.945.

For the sequence GGAAAAGAGGAGUGAAAUCTT against Tmsb10, the z-score is inactive: -1.31.

“GGCUCACUCAUCAAUUCCCTT against 2210010C04Rik”: the z-score is inactive: -0.136.

On to GGAUGUGCCCAAGGACAAGTT against Foxc2, for which the z-score is inactive: -1.94.

Turning to “GGAUCAACGAGGAUCAAGATT against D230014K01Rik”, the z-score was inactive: 0.785.

Turning to UAUCCACUUUACCUUUGUATT against Zfp187, the z-score was inactive: 0.279.

On to GGAUGUCAAAUCUUCCAUATT against Olfr971, for which the z-score was inactive: 1.15.

Take GGAGUUGUGACUACGGAGATT against MGC67168: the z-score is inactive: 0.475.

Turning to GGCACUUCCAUGCUAAAUUTT against Gpt1, the z-score was inactive: 0.801.

Turning to GGGACUUUGAUUUUGAGAGTT against Ppp1r3f, the z-score is inactive: 0.249.

Turning to GCAAAGGAGGCUUCUAUUGTT against Olfr380, the z-score is inactive: -1.3.

For the sequence GGAUAGUCUUUCCAGAUGGTT against Slamf7, the z-score was inactive: -0.0727.

Turning to CCGAGAACUACCUGUGUAATT against AA407659, the z-score was inactive: -1.5.

As to GGGUGGUACUAAACUCCAUTT against Ptpns1, the z-score is inactive: -0.599.

Take CCGUUUGUCCCAGAUAUGATT against Garnl4: the z-score was inactive: 1.95.

For the sequence GGGAUAGGAAAAAGUAACATT against AI661017, the z-score was inactive: -0.605.

GGUCUUCGUGGACAUUCCATT against Arrdc2: the z-score is inactive: -0.993.

Regarding GGCAGUGGGAAGUCUUUCATT against Kif17, the z-score is inactive: -0.296.

For GGAAUAUUCAGAAUCCCUCTT against Tnfaip8l3, the z-score was inactive: 1.

CGUUGAUCCUUUCUAACAUTT against Olfr888: the z-score is inactive: -1.97.

In the case of “GGAUUUCUCUGCCUGUACUTT against D330012F22Rik”, the z-score is inactive: -1.03.

Take GCACCCUCUUAUGAAUUUATT against BC057893: the z-score is inactive: 0.487.

Regarding GCGGAACUGAUUUAGUUCATT against Kazald1, the z-score was inactive: -0.788.

For the sequence GGCUCACACUCCUGUUAAUTT against BC004044, the z-score was inactive: -2.59.

Take GCUGAAAUACGCUGACAUCTT against Jundm2: the z-score is inactive: 0.732.

As for GGUUGCCCAAAACUCUAGATT against Elovl7, the z-score was inactive: -0.758.

On to GGUGGAGGCAGGAAAAUCUTT against Mrp63, for which the z-score is inactive: -0.422.

As for GCUACUAUAGCAACCUAACTT against Eef2k, the z-score is inactive: -0.0224.

As to GCAGCCAAUGGGUUCGCUUTT against Hoxa3, the z-score is inactive: -0.594.

Turning to GCGAUUGUUGCCUAUGGGUTT against Hig1, the z-score is inactive: 1.91.

With GGUCAUUGGCUUGAGUGCATT against Akp5, the z-score was inactive: -0.663.

As to “GGAGCUGCUUGCUCAAAGATT against 4930438D12Rik”, the z-score is inactive: 1.16.

Regarding “GCUCUACAGUAGAACAAACTT against 4930563A03Rik”, the z-score was inactive: -0.423.

With “GCGCGGCUUCAGAAUUAUCTT against A230062G08Rik”, the z-score is inactive: 0.994.

On to GGGUCAAAAAGUCAAAUCUTT against V1re9, for which the z-score is inactive: 0.589.

Turning to “GGUCAUCUGCCACAUGGCATT against 4921530G04Rik”, the z-score is inactive: 1.36.

On to GGCGGUUUUUUGUCUAUGCTT against Serpina1e, for which the z-score is inactive: -0.238.

As to GAGCUCUUGGUGGAUCAUCTT against Foxo3, the z-score was inactive: -0.584.

With GGGUCAGUGACUAAGCUUCTT against Abca7, the z-score is inactive: 0.0913.

Take GGAAAUCUUCAAACUUAGATT against Tlk2: the z-score was inactive: 0.884.

As for “GGCAACAGACAAGAACAAGTT against D830019K17Rik”, the z-score is inactive: 0.425.

Turning to “GGGUCUUCAGUAUUAACACTT against 1600012F09Rik”, the z-score was inactive: 0.745.

Consider GGAGGAUAUGAGCAAGUACTT against Isg20, for which the z-score is inactive: -0.104.

GGCAGCGAAAGUUUUCAAGTT against Pcdhga12: the z-score was inactive: 1.96.

For GCUGACUCCAUCCUAACAGTT against Cideb, the z-score was inactive: -0.516.

With CGGGACUAUUAUUACUCCATT against Ap2m1, the z-score was inactive: 0.665.

On to CGAAUACAACCAGUUUCUGTT against Adam11, for which the z-score was inactive: 1.65.

Consider “CGACUGAUAGAUGAGUAAATT against C130026L21Rik”, for which the z-score is inactive: -1.63.

On to GCCUAUGGACCAGUUAGAUTT against Nono, for which the z-score was inactive: -0.157.

As for CCAGGAAUGACACGGGAUGTT against Mdh2, the z-score is inactive: 0.0125.

Consider GGUGAAAAGUCUCUGAAUGTT against Pbk, for which the z-score was inactive: -0.191.

With GCGACUAGUAGUGCAUGAATT against Wdr13, the z-score is inactive: -1.81.

GCAAUCCAUUGAAAGAGGCTT against Hps3: the z-score is inactive: 0.28.

As for GGCCGUUCCAAAAGAGACATT against Gm963, the z-score was inactive: 1.93.

Turning to “GGAGCUAGAGAGAUCUGCATT against 1810049K24Rik”, the z-score was inactive: -1.16.

Consider GGGAAGGCUGAAUGACUGCTT against Vamp5, for which the z-score is inactive: -0.286.

With CCUCAGUACGUGCAGUAUGTT against Mos, the z-score was inactive: 0.331.

Take CGGUCUGCUCUACAUUGUCTT against Nek4: the z-score was inactive: 0.0821.

On to GGCAUGAUCAUGCAUGUGATT against Hils1, for which the z-score was inactive: -0.199.

For “GGUGCUUCUUUUGAGAAUGTT against D230014K01Rik”, the z-score is inactive: 2.19.

For the sequence GGUGAUGUAUUAUUAUCCATT against Defb12, the z-score was inactive: 0.642.

GGUGGUAACAUUAACUGAGTT against Solt: the z-score is inactive: -2.31.

In the case of CGGUUUCAGUCUUUUGGAUTT against Cd84, the z-score is inactive: 1.6.

On to GGACCUGGAAAUAAUUGUUTT against Pex2, for which the z-score was inactive: -1.

“GGAAUGCAAUGACAAAUGATT against D17Ertd288e”: the z-score was inactive: 0.0555.

Regarding GGCUUCUAUUUGUUUCCUGTT against Cbl, the z-score is inactive: -0.452.

GGAAACCAUUGAAGAUGUUTT against Psmd13: the z-score is inactive: -3.12.

On to “CGCGUUGGCAGAAAUUGAATT against 4933421G18Rik”, for which the z-score is inactive: 0.487.

Take GGUCAUAUAGGGAUACUUATT against Dhrs2: the z-score is inactive: -1.23.

Take GGCCCUUUAUUUUGAGUACTT against Cp: the z-score is inactive: 2.53.

In the case of GGAUGAGAGUCCACAGCAATT against Edg7, the z-score was inactive: 1.81.

On to GCAUAGUAGGAUCUGUCUUTT against Tdpoz5, for which the z-score was inactive: 0.614.

Regarding GGAAUCCUGCUGUGGUGUUTT against Cyp2c65, the z-score was inactive: -0.491.

In the case of “GGAAGAAGAAGGAGCUAGATT against D11Ertd730e”, the z-score was inactive: -1.74.

Take GGAAACUAUGGGCAAGUAATT against Olfr1239: the z-score is inactive: -1.58.

GGAGGGAAGAAACAAUCUATT against Rnf40: the z-score is inactive: -0.117.

As to GGUCCUACUAUAACCUGCGTT against Gdf3, the z-score was inactive: -1.21.

Consider GGUGAACUUGAAGAAGCCUTT against Ero1l, for which the z-score is inactive: 0.395.

Turning to GGAAUCUUUGAGCUGGUGGTT against Map4k6, the z-score was inactive: 0.243.

Turning to GGUGAGUAUAUUCAAGUUATT against Ndor1, the z-score is inactive: 1.07.

On to AAAAGCUUCACCUAACUAUTT against Ascc1, for which the z-score is inactive: 0.832.

GGCCUCUUUUCUGCUGCUUTT against Krt1-12: the z-score is inactive: -1.27.

Take “CCUCAGCUCCGUAGAUCUUTT against B130017I01Rik”: the z-score was inactive: -0.1.

In the case of “GGAGUUUCACCAGAAGGCUTT against A430025D11Rik”, the z-score is inactive: -1.04.

For GGACAUAUUGGAUGGUGAUTT against Usp2, the z-score is inactive: 3.06.

As to GGAAGGAUAUGAGAAUUUCTT against Nt5c3, the z-score is inactive: 1.32.

As to “CCGACUUGGAUAUUGCAUATT against 1810045K07Rik”, the z-score is inactive: 0.12.
